# Measurements: patent publication US8163702B2, “Treatment of melanoma” (SciClone Pharmaceuticals, Inc., priority 2006, dated 2012)
# At least one compound was matched to its structure with a doubt left.
# Legend:
# B16 melanoma = B16 melanoma tumor growth, tumor weight and survival in C57/Bl6 mice, i.p. treatment (Example 1); format: in vivo; settings: After 26 days; DTIC 50 mg/kg i.p.
# Protocol: Tumors were induced by injecting 1×10^6 B16 melanoma cells subcutaneously in the hind leg of C57/Bl6 syngeneic mice. Mice were randomized into 5 groups of 10 animals and treated with SCV-07 at doses of 0.001, 0.01, or 0.10 mg/kg administered daily i.p. for 3 consecutive days for 2 weeks, starting 3 days after tumor implantation. Control groups were treated with saline or dacarbazine (DTIC) at a dose of 50 mg/kg i.p. for 3 days. Tumor growth was assessed every 3 days by a caliper and tumor weight was measured upon death.
# Mice were injected with B16 melanoma cells and divided into 5 groups of 10 mice each. Control mice were given injections of saline or dacarbazine (DTIC). The effects of different doses of SCV-07 were examined with respect to tumor growth rate and survival time.
# murine B16 melanoma = assay: Antitumor effect in murine B16 melanoma model, tumor size and tumor weight (Example 2); format: in vivo, C57BL/6 mice; settings: DTIC 50 mg/kg/day, Day 1 to Day 14
# Protocol: As per aseptic tissue culture procedures, one vial of B16 melanoma cells (supplied by Cell Culture Center of CAMS) was thawed and centrifuged at 1000 rpm, 20-25° C. for 5 minutes. The cell pellets were suspended in 0.1-0.5 mL normal saline (NS) and subcutaneously injected into the right axilla of each mouse (approximately 1×10^6 cells/mouse). When the tumor diameter was 1 cm approximately (measured by vernier caliper), the animals were euthanized with CO2 asphyxiation and the tumor was excised. Tumor cells were suspended in normal saline as previously described and the cell adaptation cycle was repeated once.
# On Day 0, 1×10^6 B16 cells in a volume of 0.1 mL normal saline were subcutaneously injected into the right axillary area of the mouse. The day of tumor inoculation was defined as Day 0.
# Dosing was initiated on Day 1.
# Observations were recorded daily for mortality and moribundity. […] The tumors were excised, separated, and weighed.
# Tumor volume was calculated using the following formula: Tumor Volume=Length×Width×Width/2 Tumor volume inhibition rate (IR) was calculated according to the formula: IR(TV)=(TVvehicle−TVdrug treated)/TVvehicle×100% TV is the tumor volume on the day of measurement.
# The antitumor effect of the test article was also evaluated by tumor weight. […]
smiles,measurement,setting,value
"CN(C)/N=N/c1[nH]cnc1C(N)=O [DTIC, Dacarbazine, reference compound]",animals surviving,B16 melanoma,no surviving animals
same,tumor sizes and tumor weights vs vehicle control,murine B16 melanoma,decreased the tumor sizes and tumor weights significantly
